Laboratory results: patent US12065692B2, “Optical super-multiplexing by polyynes” (The Trustees of Columbia University in the City of New York, priority 2017, dated 2024)
Some entries share one result that the patent states for a list of compounds.

Assay: Photostability of polyynes in live cell SRS imaging
Type: physicochemical
Conditions: HeLa cells, continuously imaged for 100 frames

SMILES | intensity decay [%]
CN(C)CCNC(=O)OCc1ccc(C#CC#CC#CC#Cc2ccccc2)cc1 [4-yne Lyso] | < 2
O=C(NCCC[P+](c1ccccc1)(c1ccccc1)c1ccccc1)OCc1ccc(C#CC#CC#CC#Cc2ccccc2)cc1 [4-yne Mito] | < 2
